The values below come from paper doi:10.1101/361097.

Common to all, as to test: D-loop assay
The target of series [1] is RecA-K250R K251R (Escherichia coli) (UniProt P0A7G6). The note with it: 3 mM ATP, 10 mM MgCl2, pRS306 5 nM, higher D-loop activity than WT.
The target in series [2] is RecA-E96D E97D (Escherichia coli) (UniProt P0A7G6). The following applies: 3 mM ATP, 10 mM MgCl2, pRS306 5 nM, higher D-loop activity than WT.
Series [3] has as its target RecA-K250N K251N (Escherichia coli) (UniProt P0A7G6). The following applies: 3 mM ATP, 10 mM MgCl2, pRS306 5 nM, lower D-loop activity than WT.
The target of series [4] is RecA-WT (Escherichia coli) (UniProt P0A7G6). The following applies: 3 mM ATP, 10 mM MgCl2, pRS306 5 nM, strand exchange read-out.

Construct, isoform or probe ends are uncertain for at least one entry. For some of these results: Weaker means in comparison with the reference protein, sequence or condition of that experiment. At least one verdict was read from the data and is not stated in words by the source.

“AAAAGGCCTCTAGGTTCCTTTGTTACTTCTTCTGCCGCCTGCTTCAAACCGCTAACAATACCTGGGCCCACCACACCGTGTGCATTCGTA [D-loop 90-mer ssDNA]”: the binding result is given as “binds” in series [1], “binds” in series [2], “binds more weakly” in series [3] and “binds” in series [4].
